Values quoted from earlier work as cited in US9901611B2 (Molecular Defenses Corporation, priority 2015, dated 2018).
At least one compound was matched to its structure with a doubt left.

Tested on: microglial cells
Details: microglia, NO and superoxide generated simultaneously; cited from earlier work

O=C1O[C@H]([C@@H](O)CO)C(O)=C1O [ascorbate]
peroxynitrite formation: but not
